Measurements reported in PubChem BioAssay AID1224826 (NIAID, 2016)
In all, the deposit lists about 17,000 reagents; below is an unselected part. In the full data, about 1,110 (6.6%) got an active call. 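Active means lowered or raised reporter signal; replicate intensities are raw and not normalised per plate.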 Not all columns of the deposit are shown.

- Assay: 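Regulators of Tlr4 signalling leading to Tnf-alpha expression in macrophages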 (primary screen)
- System: RAW264.7 G9 macrophages from mouse bearing reporters for p65 (GFP) and the Tnf promoter (mCherry)
- Reagent: siRNA pool against mouse genes, 100 nM
- Duration: 16 h of LPS stimulation, after 2 days of siRNA transfection
- Challenge: bacterial lipopolysaccharide (Salmonella minnesota R595), 10 ng/ml
- Measured: 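Imaged Tnf reporter mCherry in nuclei, minus background, normalised per plate to the median and expressed as robust z-scores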
- Reading the numbers: Tnf reporter robust z-score: higher = stronger Tnf promoter reporter signal after LPS
- Hit rule: 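a well counts as active at a score of -1.3 or below (Tlr4 knock-down control median) or above 3 (raised signal); controls and wells holding fewer than 50 cells are excluded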
- Meaning of the calls: active = Tnf reporter clearly lowered or raised; inactive = no clear change in Tnf reporter

target,Tnf reporter robust z-score,fewer than 50 cells in well,Outcome
Or51b6b,,fewer than 50 cells per well; well left out of calls,inactive
S100a3,-0.65,enough cells in well,inactive
Ahcyl2,,fewer than 50 cells per well; well left out of calls,inactive
Arhgef17,-0.46,enough cells in well,inactive
Tfg,0.8,enough cells in well,inactive
Nfil3,0.07,enough cells in well,inactive
Or13p5,0.85,enough cells in well,inactive
Sp1,-0.33,enough cells in well,inactive
Eif4e3,,fewer than 50 cells per well; well left out of calls,inactive
Mc3r,-0.25,enough cells in well,inactive
Ddx51,,fewer than 50 cells per well; well left out of calls,inactive
Rpl7l1,1.93,enough cells in well,inactive
Steap4,,fewer than 50 cells per well; well left out of calls,inactive
Nr3c1,0.39,enough cells in well,inactive
Gal3st1,0.11,enough cells in well,inactive
Btbd10,-0.32,enough cells in well,inactive
Arl14ep,-0.48,enough cells in well,inactive
Lcp2,,fewer than 50 cells per well; well left out of calls,inactive
Or8k36,0.09,enough cells in well,inactive
Prss27,1.35,enough cells in well,inactive
Ip6k3,-0.74,enough cells in well,inactive
S100a13,-1.56,enough cells in well,active
Arl6ip1,,fewer than 50 cells per well; well left out of calls,inactive
Myl3,-0.78,enough cells in well,inactive
